Measurements taken from US20190048016A1, “SUBSTITUTED BRIDGED UREA ANALOGS AS SIRTUIN MODULATORS” (GlaxoSmithKline Intellectual Property(No.2)Limited, priority 2014, published 2019).
At least one structure is not confirmed: it was looked up by name or label, or the drawing left a doubt.

Target: T1, SIRT1 (Homo sapiens, UniProt Q96EB6)
T1 sequence (Q96EB6 1-747): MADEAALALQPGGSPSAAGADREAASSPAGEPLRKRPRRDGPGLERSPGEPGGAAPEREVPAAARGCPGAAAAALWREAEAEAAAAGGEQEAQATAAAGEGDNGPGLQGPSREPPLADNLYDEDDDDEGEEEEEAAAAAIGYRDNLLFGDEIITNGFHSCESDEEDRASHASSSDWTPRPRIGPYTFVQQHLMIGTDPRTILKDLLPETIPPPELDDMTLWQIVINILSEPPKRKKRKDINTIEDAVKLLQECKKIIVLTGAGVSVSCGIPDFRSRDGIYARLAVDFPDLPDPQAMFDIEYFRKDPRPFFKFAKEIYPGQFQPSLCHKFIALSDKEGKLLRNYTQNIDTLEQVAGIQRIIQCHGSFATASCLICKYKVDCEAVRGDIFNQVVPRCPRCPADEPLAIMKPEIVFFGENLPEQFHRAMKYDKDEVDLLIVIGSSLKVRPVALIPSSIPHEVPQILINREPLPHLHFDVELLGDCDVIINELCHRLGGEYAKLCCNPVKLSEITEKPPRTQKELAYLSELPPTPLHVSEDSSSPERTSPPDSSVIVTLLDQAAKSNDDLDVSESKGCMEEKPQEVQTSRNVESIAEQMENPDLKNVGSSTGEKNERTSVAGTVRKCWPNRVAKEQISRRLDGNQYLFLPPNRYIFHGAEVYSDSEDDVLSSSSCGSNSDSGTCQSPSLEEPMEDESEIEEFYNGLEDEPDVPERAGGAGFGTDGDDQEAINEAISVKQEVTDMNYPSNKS
Experiment: Trp mass spectrometry assay of SIRT1 activation (deacetylation of Ac-R-H-K-K(Ac)-W-NH2 peptide, OAADPR formation)
Format: biochemical
Details: Trp peptide 0.5 μM, 120 μM βNAD+, 10 nM SIRT1, 25 min, 25° C.
Source text: Mass spectrometry based assays were used to identify modulators of SIRT1 activity. The TAMRA based assay utilized a peptide having 20 amino acid residues as follows: Ac-EE-K(biotin)-[…](Ac)NleSTEG-K(5TMR)-EE-NH2 (SEQ ID NO: 1), wherein K(Ac) is an acetylated lysine residue and Nle is a norleucine. The peptide was labeled with the fluorophore 5TMR (excitation 540 nm/emission 580 nm) at the C-terminus. The sequence of the peptide substrate was based on p53 with several modifications. In addition, the methionine residue naturally present in the sequence was replaced with the norleucine because the methionine may be susceptible to oxidation during synthesis and purification. The Trp based assay utilized a peptide having an amino acid residues as follows: Ac-R-H-K-K(Ac)-W-NH2 (SEQ ID NO: 2).
The Trp mass spectrometry assay was conducted as follows. […] Test compound was added at varying concentrations to this reaction mixture and the resulting reactions were monitored. […] The relative SIRT1 activity was then determined by measuring the amount of O-acetyl-ADP-ribose (OAADPR) formed (or, alternatively, the amount of deacetylated Trp peptide generated) by the NAD-dependent sirtuin deacetylation reaction in the presence of varying concentrations of the test compound versus control reactions lacking the test compound. […]

Row | Structure (SMILES) | TRP Activity (EC1.5, concentration of compound required to increase SIRT1 activity by 50% over control)
1 | Cc1cc(-c2nc3c(cc2Cl)N2CCC[C@@H](C2)N3C(=O)Nc2cccnc2)ccn1 [Example 66, (9S)-3-chloro-2-(2-methylpyridin-4-yl)-N-(pyridin-3-yl)-8,9-dihydro-6H-5,9-methanopyrido[2,3-b][1,4]diazocine-10(7H)-carboxamide] | B (EC1.5 1-25 μM)
2 | C[C@@H](NC(=O)c1ccc2c(n1)N(C(=O)Nc1ccc(OC[C@H](O)CO)nn1)[C@H]1CCCN2C1)C(F)(F)F [Example 55, (9S)-N10-(6-((R)-2,3-dihydroxypropoxy)pyridazin-3-yl)-N2-((R)-1,1,1-trifluoropropan-2-yl)-8,9-dihydro-6H-5,9-methanopyrido[2,3-b][1,4]diazocine-2,10(7H)-dicarboxamide] | A (EC1.5<1 μM)
